Measurements: the supplement of paper PMC12067093, “Discovery and optimisation of a covalent ligand for TRIM25 and its application to targeted protein ubiquitination” (Chemical Science, 2025)
This is one part of the list.

The chains behind the UniProt entries cited, without tags or fusion partners. Where a name states a change or a piece, a line headed by the entry shows the natural chain unless it says otherwise.
UniProt O15031: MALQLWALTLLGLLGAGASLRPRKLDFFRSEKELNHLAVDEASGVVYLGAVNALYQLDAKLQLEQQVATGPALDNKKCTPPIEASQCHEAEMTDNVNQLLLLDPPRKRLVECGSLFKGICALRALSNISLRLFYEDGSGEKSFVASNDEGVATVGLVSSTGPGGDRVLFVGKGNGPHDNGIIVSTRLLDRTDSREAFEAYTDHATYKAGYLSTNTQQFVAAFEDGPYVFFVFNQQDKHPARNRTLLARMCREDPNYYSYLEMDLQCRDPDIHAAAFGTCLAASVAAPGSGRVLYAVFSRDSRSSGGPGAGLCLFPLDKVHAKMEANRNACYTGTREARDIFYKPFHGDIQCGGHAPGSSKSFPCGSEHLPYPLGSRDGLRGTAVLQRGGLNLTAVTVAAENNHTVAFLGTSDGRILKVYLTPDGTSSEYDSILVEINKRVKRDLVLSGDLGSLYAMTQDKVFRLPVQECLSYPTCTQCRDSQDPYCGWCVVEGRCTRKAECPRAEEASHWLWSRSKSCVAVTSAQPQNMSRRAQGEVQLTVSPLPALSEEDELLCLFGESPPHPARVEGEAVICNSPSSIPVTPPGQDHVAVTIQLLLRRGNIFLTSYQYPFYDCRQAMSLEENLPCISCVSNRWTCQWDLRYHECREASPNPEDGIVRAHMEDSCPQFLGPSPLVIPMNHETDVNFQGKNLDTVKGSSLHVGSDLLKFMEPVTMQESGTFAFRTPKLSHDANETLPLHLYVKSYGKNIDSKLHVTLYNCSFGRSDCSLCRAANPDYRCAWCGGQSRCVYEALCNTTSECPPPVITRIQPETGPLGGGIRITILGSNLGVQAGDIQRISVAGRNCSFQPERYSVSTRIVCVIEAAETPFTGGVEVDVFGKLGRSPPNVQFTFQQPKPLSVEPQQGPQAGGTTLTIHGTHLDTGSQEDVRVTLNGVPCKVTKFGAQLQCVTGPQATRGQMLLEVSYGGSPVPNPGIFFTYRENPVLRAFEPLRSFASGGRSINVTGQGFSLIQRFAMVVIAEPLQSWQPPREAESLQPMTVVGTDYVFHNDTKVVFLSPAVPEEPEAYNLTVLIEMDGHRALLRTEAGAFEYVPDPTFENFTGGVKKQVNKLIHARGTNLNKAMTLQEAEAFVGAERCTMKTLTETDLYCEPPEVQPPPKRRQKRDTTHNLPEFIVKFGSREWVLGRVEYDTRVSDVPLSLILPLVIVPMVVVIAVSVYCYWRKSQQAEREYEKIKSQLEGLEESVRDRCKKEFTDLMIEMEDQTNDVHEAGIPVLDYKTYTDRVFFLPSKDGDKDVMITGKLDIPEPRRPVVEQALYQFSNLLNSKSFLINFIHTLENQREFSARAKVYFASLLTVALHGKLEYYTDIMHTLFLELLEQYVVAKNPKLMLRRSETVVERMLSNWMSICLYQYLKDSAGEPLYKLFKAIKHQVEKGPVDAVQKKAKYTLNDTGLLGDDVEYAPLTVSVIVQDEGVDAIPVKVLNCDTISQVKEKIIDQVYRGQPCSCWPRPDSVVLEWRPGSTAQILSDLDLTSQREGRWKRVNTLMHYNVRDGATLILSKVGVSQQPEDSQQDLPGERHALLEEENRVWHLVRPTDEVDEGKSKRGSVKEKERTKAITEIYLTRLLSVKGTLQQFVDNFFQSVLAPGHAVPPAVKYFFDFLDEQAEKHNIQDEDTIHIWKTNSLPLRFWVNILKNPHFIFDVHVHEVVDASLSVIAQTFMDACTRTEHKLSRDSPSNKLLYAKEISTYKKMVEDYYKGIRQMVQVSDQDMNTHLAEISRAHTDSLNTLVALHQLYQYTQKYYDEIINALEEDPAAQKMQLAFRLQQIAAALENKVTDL
UniProt P16885: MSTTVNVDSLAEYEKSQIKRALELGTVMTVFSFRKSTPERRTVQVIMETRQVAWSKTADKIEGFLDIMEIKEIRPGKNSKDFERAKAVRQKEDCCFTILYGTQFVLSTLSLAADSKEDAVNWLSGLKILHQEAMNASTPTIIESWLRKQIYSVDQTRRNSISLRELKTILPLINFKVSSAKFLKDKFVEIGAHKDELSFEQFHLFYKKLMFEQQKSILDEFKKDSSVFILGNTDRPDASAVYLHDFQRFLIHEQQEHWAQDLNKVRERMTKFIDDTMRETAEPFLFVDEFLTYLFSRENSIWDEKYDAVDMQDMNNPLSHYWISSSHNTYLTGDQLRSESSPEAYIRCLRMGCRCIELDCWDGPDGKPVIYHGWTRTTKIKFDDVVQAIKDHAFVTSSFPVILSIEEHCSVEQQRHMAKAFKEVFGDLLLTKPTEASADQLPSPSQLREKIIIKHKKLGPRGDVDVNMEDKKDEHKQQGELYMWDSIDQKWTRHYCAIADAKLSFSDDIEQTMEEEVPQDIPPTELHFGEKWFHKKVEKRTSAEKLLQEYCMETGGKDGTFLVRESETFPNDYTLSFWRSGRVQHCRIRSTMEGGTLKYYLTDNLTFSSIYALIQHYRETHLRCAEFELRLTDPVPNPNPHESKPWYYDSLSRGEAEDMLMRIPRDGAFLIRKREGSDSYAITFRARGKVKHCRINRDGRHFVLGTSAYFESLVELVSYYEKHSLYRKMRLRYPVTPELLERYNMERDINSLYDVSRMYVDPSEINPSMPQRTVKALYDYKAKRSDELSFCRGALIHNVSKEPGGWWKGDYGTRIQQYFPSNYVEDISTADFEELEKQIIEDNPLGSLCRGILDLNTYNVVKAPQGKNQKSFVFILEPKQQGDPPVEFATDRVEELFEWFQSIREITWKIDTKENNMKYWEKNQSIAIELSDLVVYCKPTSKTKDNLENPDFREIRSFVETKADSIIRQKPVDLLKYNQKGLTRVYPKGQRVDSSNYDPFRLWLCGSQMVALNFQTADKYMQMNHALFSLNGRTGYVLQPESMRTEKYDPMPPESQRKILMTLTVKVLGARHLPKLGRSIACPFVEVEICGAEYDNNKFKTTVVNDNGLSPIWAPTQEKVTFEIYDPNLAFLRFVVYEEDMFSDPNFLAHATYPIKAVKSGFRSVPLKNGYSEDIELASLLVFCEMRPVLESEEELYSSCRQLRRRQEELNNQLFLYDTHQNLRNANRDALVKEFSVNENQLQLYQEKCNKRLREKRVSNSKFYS
UniProt Q03405, whole entry, looked up: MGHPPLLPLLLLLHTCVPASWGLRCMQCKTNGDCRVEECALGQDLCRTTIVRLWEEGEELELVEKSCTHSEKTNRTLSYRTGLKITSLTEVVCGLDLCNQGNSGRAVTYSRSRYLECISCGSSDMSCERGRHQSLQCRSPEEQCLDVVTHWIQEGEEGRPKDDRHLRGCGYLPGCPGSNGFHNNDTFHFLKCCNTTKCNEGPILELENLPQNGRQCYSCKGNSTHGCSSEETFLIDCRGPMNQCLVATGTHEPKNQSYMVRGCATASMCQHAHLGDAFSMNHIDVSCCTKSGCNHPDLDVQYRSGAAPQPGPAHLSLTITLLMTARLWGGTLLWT
UniProt Q9Y2I7: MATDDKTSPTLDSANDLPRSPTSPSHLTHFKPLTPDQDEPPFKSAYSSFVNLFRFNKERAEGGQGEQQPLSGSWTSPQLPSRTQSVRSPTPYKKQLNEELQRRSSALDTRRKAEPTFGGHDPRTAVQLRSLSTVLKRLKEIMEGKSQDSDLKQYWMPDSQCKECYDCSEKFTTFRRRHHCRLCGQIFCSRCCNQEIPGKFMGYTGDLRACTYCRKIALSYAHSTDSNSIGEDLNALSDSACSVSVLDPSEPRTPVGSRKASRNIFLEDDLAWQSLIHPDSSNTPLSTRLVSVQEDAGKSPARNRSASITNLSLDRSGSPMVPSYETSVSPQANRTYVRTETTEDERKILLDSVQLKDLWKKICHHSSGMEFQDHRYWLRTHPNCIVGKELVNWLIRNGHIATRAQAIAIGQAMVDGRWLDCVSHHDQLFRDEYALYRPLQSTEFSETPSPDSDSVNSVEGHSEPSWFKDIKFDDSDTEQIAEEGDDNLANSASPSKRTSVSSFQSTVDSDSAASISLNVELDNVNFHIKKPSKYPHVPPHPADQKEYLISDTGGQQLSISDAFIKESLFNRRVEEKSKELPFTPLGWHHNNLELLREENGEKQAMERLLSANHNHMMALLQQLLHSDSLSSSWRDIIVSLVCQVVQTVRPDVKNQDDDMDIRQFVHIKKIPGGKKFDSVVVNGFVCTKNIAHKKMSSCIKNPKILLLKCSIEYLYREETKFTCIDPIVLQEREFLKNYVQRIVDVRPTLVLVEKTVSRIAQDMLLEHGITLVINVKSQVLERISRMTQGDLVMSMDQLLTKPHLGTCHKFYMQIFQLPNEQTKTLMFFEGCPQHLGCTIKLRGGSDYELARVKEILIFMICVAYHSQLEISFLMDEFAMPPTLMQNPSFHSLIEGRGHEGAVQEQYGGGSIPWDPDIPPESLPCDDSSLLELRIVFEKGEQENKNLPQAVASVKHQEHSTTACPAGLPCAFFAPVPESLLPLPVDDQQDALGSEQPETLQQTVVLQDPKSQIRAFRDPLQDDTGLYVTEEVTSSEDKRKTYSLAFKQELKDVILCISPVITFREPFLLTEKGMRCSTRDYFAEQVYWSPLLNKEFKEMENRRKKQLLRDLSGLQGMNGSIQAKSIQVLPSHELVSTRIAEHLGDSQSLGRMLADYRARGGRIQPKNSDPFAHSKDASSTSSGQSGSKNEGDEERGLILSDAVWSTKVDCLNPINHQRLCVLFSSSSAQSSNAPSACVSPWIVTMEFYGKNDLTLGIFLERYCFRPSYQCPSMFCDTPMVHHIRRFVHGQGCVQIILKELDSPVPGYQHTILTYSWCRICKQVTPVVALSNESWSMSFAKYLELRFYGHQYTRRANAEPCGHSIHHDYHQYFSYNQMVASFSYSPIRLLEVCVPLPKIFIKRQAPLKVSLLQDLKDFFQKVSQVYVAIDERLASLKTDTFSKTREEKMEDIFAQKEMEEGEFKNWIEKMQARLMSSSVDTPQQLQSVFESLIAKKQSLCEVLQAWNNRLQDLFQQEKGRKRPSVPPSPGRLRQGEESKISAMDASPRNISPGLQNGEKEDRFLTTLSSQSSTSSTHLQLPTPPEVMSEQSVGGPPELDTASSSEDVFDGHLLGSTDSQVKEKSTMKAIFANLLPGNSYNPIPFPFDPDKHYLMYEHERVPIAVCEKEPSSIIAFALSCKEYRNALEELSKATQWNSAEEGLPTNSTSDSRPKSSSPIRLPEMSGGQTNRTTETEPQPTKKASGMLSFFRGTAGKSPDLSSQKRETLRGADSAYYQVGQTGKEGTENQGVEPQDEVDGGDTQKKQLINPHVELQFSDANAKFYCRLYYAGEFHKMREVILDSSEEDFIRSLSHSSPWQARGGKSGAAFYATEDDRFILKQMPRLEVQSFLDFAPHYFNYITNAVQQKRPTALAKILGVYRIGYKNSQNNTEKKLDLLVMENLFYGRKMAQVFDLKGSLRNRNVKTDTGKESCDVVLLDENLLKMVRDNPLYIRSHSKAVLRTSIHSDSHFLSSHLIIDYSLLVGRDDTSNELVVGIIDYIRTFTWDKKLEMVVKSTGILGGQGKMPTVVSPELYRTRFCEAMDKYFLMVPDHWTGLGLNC
UniProt Q16512: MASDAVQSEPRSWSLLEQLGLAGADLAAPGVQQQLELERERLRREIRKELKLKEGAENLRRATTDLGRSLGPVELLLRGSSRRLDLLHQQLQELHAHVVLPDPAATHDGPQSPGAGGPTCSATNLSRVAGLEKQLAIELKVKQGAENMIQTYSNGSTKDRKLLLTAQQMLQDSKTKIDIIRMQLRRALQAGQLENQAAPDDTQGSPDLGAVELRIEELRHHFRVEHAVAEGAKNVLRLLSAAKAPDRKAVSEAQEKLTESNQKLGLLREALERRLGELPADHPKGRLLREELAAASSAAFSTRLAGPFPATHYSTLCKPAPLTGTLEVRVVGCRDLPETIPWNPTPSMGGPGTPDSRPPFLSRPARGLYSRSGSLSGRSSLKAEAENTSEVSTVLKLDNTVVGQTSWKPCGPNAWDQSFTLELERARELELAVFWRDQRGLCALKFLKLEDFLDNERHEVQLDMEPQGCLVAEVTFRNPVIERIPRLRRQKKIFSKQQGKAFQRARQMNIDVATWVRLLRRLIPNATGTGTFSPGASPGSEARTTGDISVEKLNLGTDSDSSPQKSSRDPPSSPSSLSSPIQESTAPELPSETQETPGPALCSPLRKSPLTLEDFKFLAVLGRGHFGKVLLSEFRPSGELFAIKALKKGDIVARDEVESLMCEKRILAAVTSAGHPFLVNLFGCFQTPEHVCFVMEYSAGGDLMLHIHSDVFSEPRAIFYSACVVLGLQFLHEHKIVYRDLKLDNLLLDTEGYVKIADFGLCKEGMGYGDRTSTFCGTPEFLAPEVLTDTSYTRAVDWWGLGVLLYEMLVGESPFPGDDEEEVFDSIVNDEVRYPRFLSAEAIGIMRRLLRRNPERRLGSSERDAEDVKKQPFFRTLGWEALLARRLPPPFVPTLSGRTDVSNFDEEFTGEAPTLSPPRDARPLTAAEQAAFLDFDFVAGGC

Compound: Cc1cc(ccc1-c1ccccc1)C(=O)N1CCCN(CC1)C(=O)CCl [compound 10]
Test: probe-labelled cysteine peptide fold change vs DMSO (competition) (log2 fold change); higher = less target engagement (more negative = stronger competition)
Conditions: THP-1, incubation time: 4 h
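Note: competitive profiling in live THP-1 cells: cysteine peptides tagged with an iodoacetamide desthiobiotin (IA-DTB) probe, intensity after compound treatment relative to DMSO-treated cells.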

| Target | probe-labelled cysteine peptide fold change (10 µM) | probe-labelled cysteine peptide fold change (50 µM) |
| --- | --- | --- |
| PLAA_Q9Y263_631_HPSVNENFCNEK (UniProt Q9Y263) | -0.0346 | -0.0185 |
| PLG_P00747_398_CQSWSSMTPHR (UniProt P00747) | -0.352 | -0.442 |
| PLXNB2_O15031_948_FGAQLQCVTGPQATR (UniProt O15031) | -0.153 | 0.18 |
| PLCG2_P16885_409_DHAFVTSSFPVILSIEEHCSVEQQR (UniProt P16885) | 0.178 | 0.433 |
| PLOD3_O60568_379_DMAMDLCR (UniProt O60568) | 0.408 | -0.161 |
| PLEC_Q15149_965_QVEVTVHKGDECQLVGPAQPSHWK (UniProt Q15149) | 0.024 | -0.0327 |
| PMS2_P54278_653_ICPGENQAAEDELRK (UniProt P54278) | 0.0156 | -0.157 |
| PLEKHF2_Q9H8W4_219_ICDFCYDLLSAGDMATCQPAR (UniProt Q9H8W4) | -0.498 | -0.228 |
| PLXND1_Q9Y4D7_445_KLNIQLQPEQLDCGAAHLQHPLSILQPLK (UniProt Q9Y4D7) | 0.207 | -0.987 |
| PLEK_P08567_155+160_IFNHCFTGNCVIDWLVSNQSVR (UniProt P08567) | 0.0766 | -0.76 |
| PIK3R2_O00459_396_DGHYGFSEPLTFCSVVDLINHYR (UniProt O00459) | 0.268 | 0.124 |
| PLD1_Q13393_1004_CLPNDEVHNLIQLR (UniProt Q13393) | 0.182 | 0.144 |
| PJA2_O43164_48_HAYVSFKPCMTR (UniProt O43164) | -0.156 | -0.00112 |
| PMS1_P54277_102_GEALGSICCIAEVLITTR (UniProt P54277) | 0.151 | -0.235 |
| PLD1_Q13393_876_AELGNQWINYISFCGLR (UniProt Q13393) | 0.149 | 0.145 |
| PLAA_Q9Y263_788_VSECCR (UniProt Q9Y263) | 0.164 | -0.0317 |
| PLAUR_Q03405_39_VEECALGQDLCR (UniProt Q03405) | -0.246 | -0.236 |
| PINX1_Q96BK5_94_NNHLGLGATINNEDNWIAHQDDFNQLLAELNTCHGQETTDSSDKK (UniProt Q96BK5) | 0.15 | 0.124 |
| PLEC_Q15149_4071_FLEGTSCIAGVFVDATK (UniProt Q15149) | 0.12 | 0.129 |
| PMS1_P54277_457_TCFISSVK (UniProt P54277) | -0.325 | -0.384 |
| PIR_O00625_79_GFETVSYLLEGGSMAHEDFCGHTGK (UniProt O00625) | 0.0123 | -0.175 |

| Target | probe-labelled cysteine peptide fold change (10 µM) | probe-labelled cysteine peptide fold change (50 µM) |
| --- | --- | --- |
| PLD4_Q96BZ4_379_LLVGCGLNTDPTMFPYLR (UniProt Q96BZ4) | -0.0446 | -0.0242 |
| PLD3_Q8IV08_487_DWDSPYSHDLDTSADSVGNACR (UniProt Q8IV08) | -0.23 | -0.151 |
| PIKFYVE_Q9Y2I7_1677_EPSSIIAFALSCK (UniProt Q9Y2I7) | -0.0688 | -0.11 |
| PNKP_Q96T60_409_CVTTCETALK (UniProt Q96T60) | -0.0957 | -0.0399 |
| PLXNB2_O15031_637_WTCQWDLR (UniProt O15031) | -0.115 | -0.0907 |
| PLBD2_Q8NHP8_244_IKPSLGSGSCSALIK (UniProt Q8NHP8) | -0.294 | -0.376 |
| PLEC_Q15149_950_GRLPLLAVCDYK (UniProt Q15149) | 0.0593 | -0.129 |
| PIKFYVE_Q9Y2I7_1498_QSLCEVLQAWNNR (UniProt Q9Y2I7) | -0.165 | -0.0127 |
| PLPP6_Q8IY26_55_ATAVDPTCAR (UniProt Q8IY26) | -0.366 | -0.581 |
| PIK3R4_Q99570_899_SESSAGICVPLSTSSQVPEVTTVQNK (UniProt Q99570) | -0.231 | -0.179 |
| PKN1_Q16512_469_HEVQLDMEPQGCLVAEVTFR (UniProt Q16512) | -0.0224 | 0.309 |
| PLCG1_P19174_960_IALELSELVVYCR (UniProt P19174) | 0.248 | 0.143 |
| PMPCA_Q10713_88_FGQFCTVGILINSGSR (UniProt Q10713) | 0.0613 | 0.0304 |
| PNPT1_Q8TCS8_372_NVSCEVDMFK (UniProt Q8TCS8) | 0.0679 | 0.00758 |
| PLCG2_P16885_624_CAEFELR (UniProt P16885) | -0.099 | -0.585 |
| PLXNB2_O15031_1149_TLTETDLYCEPPEVQPPPK (UniProt O15031) | -0.174 | -0.00622 |
| PLOD3_O60568_494_DVFSGSDTDPDMAFCK (UniProt O60568) | -0.168 | -0.00128 |
| PLPPR3_Q6T4P5_54_VGFQCYDR (UniProt Q6T4P5) | 0.0225 | 0.0956 |
| PIP5K1C_O60331_225_FYGLYCVQSGGK (UniProt O60331) | -0.105 | 0.32 |
| PLCG1_P19174_106_YQEDPAFRPDQSHCFVILYGMEFR (UniProt P19174) | 0.19 | 0.263 |

Complete entries, quoted from the list. Order of values: probe-labelled cysteine peptide fold change (10 µM) | probe-labelled cysteine peptide fold change (50 µM)
PLCG1_P19174_960_IALELSELVVYCR (UniProt P19174) in the list: 0.248 | 0.143
PKN1_Q16512_469_HEVQLDMEPQGCLVAEVTFR (UniProt Q16512) in the list: -0.0224 | 0.309
PIK3R2_O00459_396_DGHYGFSEPLTFCSVVDLINHYR (UniProt O00459) in the list: 0.268 | 0.124
